Laboratory results from PubChem BioAssay AID540276 (National Center for Advancing Translational Sciences (NCATS), 2011).
Among all 300,000 compounds or so, about 5,400 (1.8%) were called active. This list was built around the results that the source calls inconclusive (neither active nor inactive); the mix of calls is not that of the screen. The call rests on the fitted dose curve; tested in HEK293 cells. Potencies of inconclusive entries are doubtful fits and often do not repeat.

assay: qHTS for inhibitors of binding or entry into cells for Marburg Virus; settings: Marburg virus pseudotyped entry inhibition, cell reporter; activity change, negative = inhibition: at 37.8 µM (top of the series) unless noted
On the % scale 0 is the no-effect control and ±100 the full control effect; potency means the concentration at half of the fitted maximal effect.

| Compound | Potency | activity change, negative = inhibition |
| --- | --- | --- |
| Cc1cc2c(cc1C)N(Cc1ccc(Cl)cc1)C1=NCCCN12 | inconclusive: 20 µM [inhibitor, partial curve, poor fit] | – |
| Cn1cc(CN2CCC(C(O)CCc3ccccc3)CC2)c(-c2ccccc2F)n1 (configuration not stated) | inconclusive: 11.2 µM [inhibitor, partial curve, poor fit] | – |
| CCC(Sc1nc2sc(C(=O)OC)c(C)c2c(=O)n1N)C(=O)N(CC)CC (configuration not stated) | inconclusive: 14.6 µM [inhibitor, partial curve, poor fit] | – |
| Brc1ccc(OCc2ccccc2)c(CNCC2CCCO2)c1 (configuration not stated) | inconclusive: 20.6 µM [inhibitor, single point] | – |
| COC(=O)C(C)N1C(=O)S/C(=C\c2cc(C)n(-c3ccccn3)c2C)C1=O (configuration not stated) | inconclusive: 6.51 µM [activator, single point] | – |
| COc1cc(C(=O)OCC(=O)Nc2ccc3c(c2)OC(F)(F)O3)ccc1OCc1c(C)noc1C | inconclusive: 29.1 µM [inhibitor, single point] | – |
| Cc1ccc2oc(-c3ccc(Cl)c(NC(=O)c4cc5ccccc5o4)c3)nc2c1 | inconclusive: 35.5 µM [activator, single point] | – |
| CC(C)(C)N(Cc1ccccc1)C(=O)c1ccc(Cl)cc1[N+](=O)[O-] | inconclusive: 35.5 µM [inhibitor, single point] | – |
| Cc1ccccc1C(=O)Nc1cccc(NC(=O)c2cccnc2)c1 | inconclusive: 6.31 µM [inhibitor, single point] | – |
| CC(C)c1ccccc1-n1c(SCC(=O)N2CCN(c3ccccc3)CC2)nnc1-c1cccnc1 | inconclusive: 20 µM [inhibitor, single point] | – |
| CCCCn1c(N2CCCC2)nc2c1c(=O)[nH]c(=O)n2C | inconclusive: 11.2 µM [activator, partial curve] | – |
| CCN(C(=O)[C@@H]1CCCN1C(=O)c1cccs1)c1nc2cc(Cl)ccc2s1 | inconclusive: 22.4 µM [inhibitor, single point] | – |
| COc1ccc(Cl)cc1NS(=O)(=O)c1cccc(C(=O)NCC2CCCO2)c1 (configuration not stated) | inconclusive: 1.26 µM [inhibitor, single point] | – |
| COc1ccc(CC(=O)Nc2ccc(C#N)c(Cl)c2)cc1S(=O)(=O)N1CCOCC1 | inactive | – |
| Cc1nc2nc(CNC(=O)c3cccc(F)c3)nn2c(C)c1CCC(=O)Nc1cccc(Cl)c1 | inactive | – |
| Cc1nn(C(C)C(=O)Nc2ccccc2C(F)(F)F)c(=O)c2c1sc1ccccc12 (configuration not stated) | inconclusive: 3.16 µM [inhibitor, partial curve, poor fit] | – |
| Cc1ccc(NC(=O)c2ccc(NCCCN3CCOCC3)c([N+](=O)[O-])c2)cc1Cl | inconclusive: 29.1 µM [inhibitor, single point] | – |
| O=C1N/C(=C\c2ccccc2)c2ccccc21 | inconclusive: 0.259 µM [inhibitor, full curve, poor fit] | – |
| COc1ccc(-c2nc(NC(=O)c3cc(C(C)(C)C)nn3C)sc2C)cc1 | active: 9.2 µM | – |
| O=C(NCc1cccnc1)C(=O)Nc1nc(C23CC4CC(CC(C4)C2)C3)cs1 | inconclusive: 15.8 µM [inhibitor, single point] | – |
| COc1cc(/C=C2\NC(=S)N(C)C2=O)ccc1O | inconclusive: 3.16 µM [inhibitor, single point] | – |

| Compound | Potency | activity change, negative = inhibition |
| --- | --- | --- |
| CCOC(=O)c1ccccc1OC(=O)Oc1ccccc1C(=O)OCC | inconclusive: 35.5 µM [inhibitor, single point] | – |
| COC(=O)CSc1nnc(Cc2ccccc2)n1-c1ccc(C)cc1 | inactive | – |
| CCOC(=O)C(=O)Nc1cccc(C(=O)OCC)c1 | inconclusive: 2.82 µM [activator, full curve, poor fit] | – |
| CN1Cc2c(N3CCOCC3)nc3sc(C(=O)c4ccccc4)c(N)c3c2CC1(C)C | inconclusive: 7.08 µM [inhibitor, full curve, poor fit] | – |
| COc1cccc(C(=O)N(Cc2nc(-c3ccc(Cl)cc3)no2)C(C)C)c1OC | inactive | – |
| CCOP(=O)(c1ccccc1)C(O)c1ccc([N+](=O)[O-])cc1 (configuration not stated) | inactive | – |
| O=C(O)c1ccc(CSc2nc(-c3ccccc3)cc(C(F)(F)F)n2)cc1 | inconclusive: 3.16 µM [activator, full curve, poor fit] | – |
| CC(C)NS(=O)(=O)c1ccc(CCC(=O)Nc2ccc3c(c2)OCO3)cc1 | inactive | – |
| COC(=O)CCC/C=C1/SCC(NC(=O)c2ccccc2)/C1=N/O (configuration not stated) | inconclusive: 5.62 µM [inhibitor, single point] | – |
| O=C(CCS(=O)(=O)c1ccccc1)N(CCCN1CCOCC1)c1nc2c(F)cccc2s1 | inconclusive: 2.82 µM [inhibitor, partial curve, poor fit] | – |
| CCC(C)Cn1cnc2c(SCc3ccccc3F)nc(N)nc21 (configuration not stated) | inconclusive: 31.6 µM [inhibitor, single point] | – |
| Fc1ccc(Nc2nc3ccccc3n3cnnc23)c(F)c1 | inactive | – |
| O=C1OC(Nc2ccc(F)c([N+](=O)[O-])c2)c2ccccc21 (configuration not stated) | inconclusive: 1.26 µM [inhibitor, single point] | – |
| O=c1[nH]c(O)c(/C=C2/C=CC(c3cc(Cl)ccc3Cl)=N2)c(=O)[nH]1 | inconclusive: 18.3 µM [inhibitor, single point] | – |
| CC(=O)Nc1ccccc1-c1nc2ccccc2nc1OCC(=O)c1ccc(Br)cc1 | inconclusive: 16.4 µM [inhibitor, single point] | – |
| O=C(CN1C(=O)C2CC=CCC2C1=O)NCc1cccs1 (configuration not stated) | – | inconclusive: 26.7% [activator] [at 46.1 µM] |
| COc1ccc(NC(=O)c2ccc3ncsc3c2)cc1 | inactive | – |
| CC1CCCCC1NC(=O)COc1cccnc1[N+](=O)[O-] (configuration not stated) | inconclusive: 11.2 µM [activator, partial curve] | – |
| CS(=O)(=O)c1ccc(Cl)c(NC(=O)CN2CCN(C(=O)c3cccs3)CC2)c1 | inactive | – |
| CC1=NOC(=O)/C1=C/c1ccc(O)c(Br)c1 | inactive | – |
| COC(=O)CC1Oc2ccccc2-n2cc(-c3ccc(F)cc3)nc21 (configuration not stated) | inactive | – |

Reprinted at random: four entries already listed

| Compound | Potency | activity change, negative = inhibition |
| --- | --- | --- |
| CC(C)NS(=O)(=O)c1ccc(CCC(=O)Nc2ccc3c(c2)OCO3)cc1 | inactive | – |
| O=c1[nH]c(O)c(/C=C2/C=CC(c3cc(Cl)ccc3Cl)=N2)c(=O)[nH]1 | inconclusive: 18.3 µM [inhibitor, single point] | – |
| O=C(CCS(=O)(=O)c1ccccc1)N(CCCN1CCOCC1)c1nc2c(F)cccc2s1 | inconclusive: 2.82 µM [inhibitor, partial curve, poor fit] | – |
| CN1Cc2c(N3CCOCC3)nc3sc(C(=O)c4ccccc4)c(N)c3c2CC1(C)C | inconclusive: 7.08 µM [inhibitor, full curve, poor fit] | – |
